Test results: PubChem BioAssay AID248 (DTP/NCI, 2004)
The list does not hold the whole screen: it is rich in T/C values a quarter to a half above the control, in often repeated tests (any T/C) and in doses without a T/C. Other doses and runs of a compound stand elsewhere. T/C: endpoint of the treated group in % of that of the vehicle group. Some doses have a count of surviving animals in place of a T/C: the source holds a T/C of zero for them, seemingly a mark for toxic or unscored doses. Some survivor counts are full or nearly so, which does not show that the dose was tolerated: survival well below the control is almost never listed, so the zero probably covers shortened survival too. Survivors were counted at the toxicity check, usually on the fifth day, unless a day is given; later deaths do not show. Schedules are NCI's codes, taken here to give the interval after Q, in days (D) or hours (H), and the number of doses after X. Where survival is the endpoint, this PubChem deposit counts one and a half times the control or more as active, and values a quarter to a half above the control carry no call in these data; other NCI protocols may use other cut-offs. Some doses were run more than once; their values stand side by side, smallest first. Signs of the kind (2×) say how often a value occurs here. Some schedules carry Z or #; the key to these is not given.

Tested on: L1210 leukemia ip in BDF1 mice, survival T/C
Test: NCI In Vivo Anticancer Drug Screen. Data for tumor model L1210 Leukemia (intraperitoneal) in B6D2F1 (BDF1) mice
Settings: T/C endpoint: mean survival time, higher T/C = longer survival

## Nc1ncn(C2OC(CO)C(O)C2O)c(=O)n1 (stereo not drawn)
dose: 0.25 mg/kg/injection, schedule: Q01DX009 (ip), vehicle: saline
  T/C: 135 % of control
dose: 0.25 mg/kg/injection, schedule: Q01DX015 (ip), vehicle: carboxymethylcellulose (CMC)
  T/C: 125 % of control
dose: 0.45 mg/kg/injection, schedule: Q01DX009 (ip), vehicle: saline
  T/C: 138 and 141 % of control
dose: 0.5 mg/kg/injection, schedule: Q01DX005 (ip), vehicle: saline
  T/C: 140 % of control
dose: 0.5 mg/kg/injection, schedule: Q01DX015 (ip), vehicle: carboxymethylcellulose (CMC)
  T/C: 131 % of control
dose: 0.75 mg/kg/injection, schedule: Q01DX009 (ip), vehicle: water, evaluated on day 5
  T/C: 132 % of control
dose: 0.75 mg/kg/injection, schedule: Q01DX009 (ip), vehicle: water, evaluated on day 60
  T/C: 133 and 145 % of control
dose: 0.9 mg/kg/injection, schedule: Q01DX009 (ip), vehicle: saline
  T/C: 145, 154, 158, 171 % of control
dose: 1.0 mg/kg/injection, schedule: Q01DX005 (ip), vehicle: saline
  T/C: 146 % of control
dose: 1.0 mg/kg/injection, schedule: Q01DX015 (ip), vehicle: other
  T/C: 130 % of control
dose: 1.12 mg/kg/injection, schedule: Q01DX009 (oral), vehicle: saline
  T/C: 126 % of control
dose: 1.25 mg/kg/injection, schedule: Q01DX009 (ip), vehicle: carboxymethylcellulose (CMC)
  T/C: 147 % of control
dose: 1.6 mg/kg/injection, schedule: Q04DX003 (ip), vehicle: water
  T/C: 137 and 145 % of control
dose: 1.8 mg/kg/injection, schedule: Q01DX009 (ip), vehicle: saline
  T/C: 188, 195, 204, 213 % of control
dose: 2.25 mg/kg/injection, schedule: Q01DX009 (oral), vehicle: saline
  T/C: 144 % of control
dose: 2.25 mg/kg/injection, schedule: Q## X003 (ip), vehicle: saline
  T/C: 142 % of control
dose: 3.0 mg/kg/injection, schedule: Q01DX009 (ip), vehicle: saline, evaluated on day 30
  T/C: 93 and 204 % of control
dose: 3.0 mg/kg/injection, schedule: Q01DX009 (ip), vehicle: saline, evaluated on day 40
  T/C: 367 % of control
dose: 3.0 mg/kg/injection, schedule: Q01DX009 (ip), vehicle: saline, evaluated on day 45
  T/C: 242 % of control
dose: 3.0 mg/kg/injection, schedule: Q01DX009 (ip), vehicle: saline, evaluated on day 60
  T/C: 273 % of control
dose: 3.0 mg/kg/injection, schedule: Q## X008 (ip), vehicle: saline
  T/C: 136 % of control
dose: 3.6 mg/kg/injection, schedule: Q01DX009 (ip), vehicle: saline
  T/C: 210, 244, 290, 302 % of control
dose: 4.0 mg/kg/injection, schedule: Q01DX005 (oral), vehicle: saline
  T/C: 132 % of control
dose: 4.0 mg/kg/injection, schedule: Q## X040 (oral), vehicle: saline
  T/C: 126 % of control
dose: 4.5 mg/kg/injection, schedule: Q04DX002 (ip), vehicle: saline
  T/C: 111, 127, 142, 149 % of control
dose: 5.0 mg/kg/injection, schedule: Q01DX009 (ip), vehicle: saline
  T/C: 129 % of control
dose: 6.0 mg/kg/injection, schedule: Q01DX001 (ip), vehicle: saline
  T/C: 127 % of control
dose: 6.0 mg/kg/injection, schedule: Q01DX009 (ip), vehicle: water, evaluated on day 5
  T/C: 140 % of control
dose: 6.0 mg/kg/injection, schedule: Q01DX009 (ip), vehicle: water, evaluated on day 60
  T/C: 142 % of control
dose: 6.25 mg/kg/injection, schedule: Q04DX003 (ip), vehicle: clinical formulation
  T/C: 133, 137, 162 (2×), 167, 217 % of control
dose: 6.25 mg/kg/injection, schedule: Q04DX003 (ip), vehicle: water, evaluated on day 30
  T/C: 212 and 218 % of control
dose: 6.25 mg/kg/injection, schedule: Q04DX003 (ip), vehicle: water, evaluated on day 60
  T/C: 106, 154, 159, 167, 170, 171, 172, 179, 180 % of control
dose: 7.2 mg/kg/injection, schedule: Q01DX009 (ip), vehicle: saline
  survivor count: 1 of 1
dose: 9.0 mg/kg/injection, schedule: Q04DX002 (ip), vehicle: saline
  T/C: 154, 173, 178, 183 % of control
dose: 10.0 mg/kg/injection, schedule: Q01DX009 (ip), vehicle: carboxymethylcellulose (CMC)
  survivor count: 6 of 6
dose: 12.0 mg/kg/injection, schedule: Q01DX001 (ip), vehicle: saline
  T/C: 144 % of control
dose: 12.0 mg/kg/injection, schedule: Q01DX005 (ip), vehicle: clinical formulation
  survivor count: 2 of 6
dose: 12.0 mg/kg/injection, schedule: Q01DX005 (ip), vehicle: water
  survivor count: 3 of 6
dose: 12.0 mg/kg/injection, schedule: Q01DX009 (ip), vehicle: clinical formulation
  survivor count: 6 of 6
dose: 12.0 mg/kg/injection, schedule: Q01DX009 (ip), vehicle: saline
  survivor count: 6 of 6
dose: 12.5 mg/kg/injection, schedule: Q04DX003 (ip), vehicle: clinical formulation
  T/C: 137, 151, 159, 201, 223, 265 % of control
dose: 12.5 mg/kg/injection, schedule: Q04DX003 (ip), vehicle: water, evaluated on day 30
  T/C: 178 and 296 % of control
dose: 12.5 mg/kg/injection, schedule: Q04DX003 (ip), vehicle: water, evaluated on day 60
  T/C: 154, 180, 212, 213, 215, 217, 227, 239, 248 % of control
